In PMC4038515:
Results are given in words; binding and its absence hold for the method and conditions named. Binding seen in cells or lysates may run through a third protein. Some results given as binding are weak or reduced against the parent protein; the word gives no strength. For part of these data: Sequences can lack the tags named with a protein.

How the values were obtained:
Settings in all cases: remark: other sources report otherwise
[1] = molecular target: T1, FLAG-FOXA2, Q9Y261; assay: proximity ligation; FLAG-FOXA2 and MYC-SIRT1 ectopically expressed in U2OS cells; FLAG- and SIRT1-specific antibodies; data not shown
T1 chain: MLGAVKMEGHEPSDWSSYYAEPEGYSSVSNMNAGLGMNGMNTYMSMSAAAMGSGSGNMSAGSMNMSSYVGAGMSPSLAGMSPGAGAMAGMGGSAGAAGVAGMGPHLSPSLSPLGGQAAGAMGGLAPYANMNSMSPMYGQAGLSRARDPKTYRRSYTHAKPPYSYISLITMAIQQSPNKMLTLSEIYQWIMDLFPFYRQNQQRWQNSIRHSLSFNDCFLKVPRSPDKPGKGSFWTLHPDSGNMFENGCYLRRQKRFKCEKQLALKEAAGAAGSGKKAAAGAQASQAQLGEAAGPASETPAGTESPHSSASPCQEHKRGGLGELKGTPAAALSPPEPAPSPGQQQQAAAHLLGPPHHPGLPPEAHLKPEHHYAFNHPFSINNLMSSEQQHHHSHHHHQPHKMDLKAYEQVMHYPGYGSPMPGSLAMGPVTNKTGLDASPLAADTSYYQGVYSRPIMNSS

[2] = molecular target: T1, FLAG-FOXA2, Q9Y261; assay: co-IP; FLAG-FOXA2 and MYC-SIRT1 (wild type or H363Y) co-expressed in HEK293T cells; lysis in SIRT buffer (1% Triton X-100, 5% glycerol, 50 mM Tris-HCl pH7.5, 100 mM NaCl, 5 mM EDTA); FLAG-FOXA2 precipitated with FLAG-M2 beads for 2 hours; SIRT1 detected by anti-MYC or anti-SIRT1; also after starvation from glucose and serum for 16 hours (interaction decreased)
[3] = molecular target: T2, endogenous FOXA2 (human (endogenous in HepG2)), Q9Y261; assay: proximity ligation; endogenous FOXA2 and SIRT1 in fixed, permeabilized HepG2 cells; antibodies against SIRT1 and FOXA2, Duolink II PLA probes; also after 2 or 4 hours in glucose-free medium without FCS (interaction reduced)
T2 chain: T1 chain

B1: MYC-SIRT1, Q96EB6 1-747 (enzyme)
chain: MADEAALALQPGGSPSAAGADREAASSPAGEPLRKRPRRDGPGLERSPGEPGGAAPEREVPAAARGCPGAAAAALWREAEAEAAAAGGEQEAQATAAAGEGDNGPGLQGPSREPPLADNLYDEDDDDEGEEEEEAAAAAIGYRDNLLFGDEIITNGFHSCESDEEDRASHASSSDWTPRPRIGPYTFVQQHLMIGTDPRTILKDLLPETIPPPELDDMTLWQIVINILSEPPKRKKRKDINTIEDAVKLLQECKKIIVLTGAGVSVSCGIPDFRSRDGIYARLAVDFPDLPDPQAMFDIEYFRKDPRPFFKFAKEIYPGQFQPSLCHKFIALSDKEGKLLRNYTQNIDTLEQVAGIQRIIQCHGSFATASCLICKYKVDCEAVRGDIFNQVVPRCPRCPADEPLAIMKPEIVFFGENLPEQFHRAMKYDKDEVDLLIVIGSSLKVRPVALIPSSIPHEVPQILINREPLPHLHFDVELLGDCDVIINELCHRLGGEYAKLCCNPVKLSEITEKPPRTQKELAYLSELPPTPLHVSEDSSSPERTSPPDSSVIVTLLDQAAKSNDDLDVSESKGCMEEKPQEVQTSRNVESIAEQMENPDLKNVGSSTGEKNERTSVAGTVRKCWPNRVAKEQISRRLDGNQYLFLPPNRYIFHGAEVYSDSEDDVLSSSSCGSNSDSGTCQSPSLEEPMEDESEIEEFYNGLEDEPDVPERAGGAGFGTDGDDQEAINEAISVKQEVTDMNYPSNKS
With B1 as the binder, how does the binding [1] read?
Its binding is “binds”.

And the binding [2]?
The binding was “binds”.

B2: endogenous SIRT1, Q96EB6 1-747 (enzyme)
chain: B1 chain
With B2 as the binder, how does the binding [3] read?
Its binding is “binds”.
